# Results published in PubChem BioAssay AID1347075 (National Center for Advancing Translational Sciences (NCATS), 2019).
# The whole screen tested about 400,000 compounds, of which about 5,500 (1.4%) were called active. The inconclusive results got no clear call from the source; some entries with a clear call stand among them for comparison. Calls come from the whole dose curve; as a rule, active = well fitted cell-killing curve with a large enough effect; inconclusive = small, poorly fitted or top-dose-only effect, or effect the other way; inactive = flat fitted curve, though single readings scatter. Where the call is inconclusive, the potency comes from a doubtful curve fit.
# Assay: qHTS assay for MDR1-selective chemotherapeutics: Primary screen using the parental adenocarcinoma cell KB-3-1; note: nearly all actives have a fitted effect of over 60% in size
# Conditions: KB-3-1 viability, CellTiter-Glo ATP luminescence, 72 h; activity change, negative = cytotoxic: at 46.1 µM (top of the series)
# Excerpt: A prime difficulty in effectively treating cancer is the development of cellular resistance to multiple structurally unrelated anticancer drugs, a phenomenon known as multidrug resistance (MDR). […] Numerous strategies to overcome P-gp-mediated MDR have been explored, including the design of drugs that evade recognition and efflux, and development of inhibitors to block efflux and restore drug accumulation. […] An alternative approach is to exploit resistance by identifying drugs that target MDR cells over the non-resistant parental cells from which they were selected. […] The development of MDR1-selective agents represents a new strategy for resolving multidrug resistance, as it remains a long-standing clinical challenge for cancer chemotherapy.
# Our goal is to identify compounds that selectively kill P-gp-expressing MDR cells. We will identify MDR1-selective compounds by comparing toxicity of compounds in the screening library against parental, drug-naive (KB-3-1) adenocarcinoma cells as well as their drug-selected MDR sub-line (KB-V1). The differential toxicity of compounds against these two cell lines will be used to identify MDR1-selective compounds, whose cytotoxicity is potentiated, rather than diminished, by P-gp expression. This assay will be utilized to conduct a quantitative high-throughput screen (qHTS) in collaboration with the NIH Chemical Genomics Center to identify selective agents, and probe hits arising from the screen will be validated using secondary assays and characterized through a well-established follow-up research program. This screen was run against the entire NCGC library collection of about 400,000 compounds.
# NIH Molecular Libraries Probe Production Network [MLPCN]
# NIH Chemical Genomics Center [NCGC]
# PI: Michael Gottesman PhD, National Cancer Institute, NIH
# Briefly, 5 microL of media containing either KB-3-1 cells (columns 1-2, 4-48) are dispensed into Greiner white, treated solid-bottom 1536-well assay plates (media-only control is added to column 3). Compounds are then transferred via Kalypsys pin tool equipped with 1536-pin array (10 nL slotted pins, V&P Scientific, San Diego, CA). Following addition of compound, the plates are incubated at 37 degrees C for 72 hours. CellTiter-Glo (2.5 µL/well) is then added, and the plates are read in a ViewLux reader (Perkin-Elmer, clear luminescence filter, 1 second exposure, 1x binning) following a 10 minute incubation. All cells are dispensed in DMEM phenol-red free media containing 10% FBS.
# Library plates were screened starting from the lowest and proceeding to the highest concentration. Vehicle-only plates, with DMSO being pin-transferred to columns 5-48, will be inserted uniformly at the beginning and the end of each library in order to monitor and record any shifts in the background, which can be affected by reagent dispensers or loss in enzyme activity over time. Screening data will be corrected, normalized, and concentration-effect relationships will be derived by using publicly-available NCGC, NCATS curve fitting algorithms (http://ncgc.nih.gov/pub/openhts).
# % is set by controls: 0 for no effect and ±100 for the full control effect; potency is the fitted concentration of half-maximal effect.
Structure (SMILES),Potency,"activity change, negative = cytotoxic"
Brc1ccc(CSc2ncnc3nc[nH]c23)cc1,"inconclusive: 29.1 µM [cytotoxic, single point]",
CCOc1ccc(/C=C/c2nc(C#N)c(NCCCOC)o2)cc1,active: 5.17 µM,
O=C(Nc1ccc(-c2csc(Nc3ccccc3)n2)cc1)c1cc([N+](=O)[O-])cc(C(F)(F)F)c1,active: 14.6 µM,
Cc1nn(Cc2ccccc2)c(Cl)c1/C=C/C(=O)OCC(=O)N1CCCC1=O,"inconclusive: 0.0058 µM [rising, full curve, poor fit]",
O=C(Cc1cccc2ccccc12)N/N=C/c1ccc(Sc2nc3ccccc3s2)o1,"inconclusive: 29.1 µM [cytotoxic, single point]",
Cc1cccc(NC(=O)c2cccc3c2-c2ccccc2C3=O)n1,,inactive: 6.22%
CCN1CCN(c2nn3c(=O)c4ccccc4nc3c3ccccc23)CC1,"inconclusive: 23.1 µM [cytotoxic, single point]",
NC(=O)c1cc(-c2csc(NCCc3ccccc3)n2)ccc1O,,inactive: -10.5%
COc1ccc(OCCNC(=O)c2ccccc2OCC(=O)Nc2ccc(NC(C)=O)cc2)cc1,,inactive: -27.4%
CC(C)NC(=O)c1c(O)c2ccccc2[nH]c1=O,"inconclusive: 16.4 µM [cytotoxic, single point]",
Cc1ccc(NC(=O)c2ccc(=O)[nH]n2)cc1S(=O)(=O)Nc1ccc(SC(F)F)cc1,"inconclusive: 25.9 µM [cytotoxic, partial curve, poor fit]",
O=C(NC(c1ccc(-c2ccccc2)cc1)c1cnccn1)C1CCN(Cc2ccc(Oc3ccccc3)cc2)CC1 (stereo not drawn),"inconclusive: 29.1 µM [cytotoxic, single point]",
COC(=O)c1[nH]c2c(c1C)C(=O)CC(c1ccccc1)C2 (stereo not drawn),active: 1.3 µM,
CC(C)C(=O)Nc1cccc(COc2ccccc2CN(Cc2ccccc2)C(=O)OC(C)(C)C)c1,"inconclusive: 18.4 µM [cytotoxic, single point]",
Cc1cccc(-c2nn(-c3ccccc3)cc2C(=O)N(C)CC(=O)Nc2ccc(N3CCOCC3)cc2)c1,"inconclusive: 6.51 µM [rising, partial curve]",
O=C1CSC(=S)N1Cc1cccnc1,active: 4.61 µM,
Cc1ccc(NC(=O)c2ccc([N+](=O)[O-])o2)cc1S(=O)(=O)N1CCOCC1,"inconclusive: 2.91 µM [cytotoxic, partial curve, poor fit]",
COc1ccc(NC2=C(C(C)=O)C(c3ccccc3)C(C(C)=O)C(C)(O)C2)cc1 (stereo not drawn),,inconclusive: 4.07%
Cc1[nH]c2ccccc2c1C(=O)COC(=O)c1nccnc1N,"inconclusive: 29.1 µM [rising, single point]",
C=CCn1cc(CN2CCC(C(=O)Nc3cccc(-c4cccc(F)c4)c3)CC2)c(C)n1,"inconclusive: 18.4 µM [cytotoxic, partial curve, poor fit]",
Cc1ccc(S(=O)(=O)CCC(=O)N2CCN(c3ccc([N+](=O)[O-])cc3)CC2)cc1,"inconclusive: 23.1 µM [cytotoxic, single point]",
CN(C)c1ccc(-c2noc(C3CCN(S(=O)(=O)c4ccc(C(=O)O)cc4)CC3)n2)cc1,"inconclusive: 29.1 µM [cytotoxic, single point]",
Clc1ccc(-c2nnc(-c3ccco3)nc2N2CCCCC2)cc1,,inactive: 9.2%

# Three entries from above, with bars between the fields:
Structure (SMILES) | Potency | activity change, negative = cytotoxic
Cc1ccc(S(=O)(=O)CCC(=O)N2CCN(c3ccc([N+](=O)[O-])cc3)CC2)cc1 | inconclusive: 23.1 µM [cytotoxic, single point] | 
CN(C)c1ccc(-c2noc(C3CCN(S(=O)(=O)c4ccc(C(=O)O)cc4)CC3)n2)cc1 | inconclusive: 29.1 µM [cytotoxic, single point] | 
Clc1ccc(-c2nnc(-c3ccco3)nc2N2CCCCC2)cc1 |  | inactive: 9.2%

# (more compounds)

Structure (SMILES),Potency,"activity change, negative = cytotoxic"
Cc1ccccc1NCc1nc2ccccc2n1CCOc1ccccc1,active: 14.6 µM,
OC(CNCC1COc2ccccc2O1)COCc1cccs1 (stereo not drawn),"inconclusive: 29.1 µM [cytotoxic, single point]",
Cc1nn(-c2ccccc2)c(C)c1/C=N/n1c(-c2ccc(C(C)(C)C)cc2)n[nH]c1=S,"inconclusive: 29.1 µM [cytotoxic, single point]",
NC(=O)CC(NC(=O)Cc1cccc2ccccc12)c1ccc(N2CCc3ccccc3C2)c([N+](=O)[O-])c1 (stereo not drawn),"inconclusive: 20.6 µM [cytotoxic, single point]",
C[C@@H]1CN([C@@H](C)CO)C(=O)CCCn2nncc2CO[C@H]1CN(C)Cc1ccc2c(c1)OCCO2,,inactive: 1.81%
Cc1cc(C)n(C(=O)N(c2ccccc2)c2ccccc2)n1,"inconclusive: 23.1 µM [cytotoxic, single point]",
NC(=S)NN=C(c1ccccc1)c1ccccc1,,inactive: -6.56%
Cc1c(C(=O)N(C)C)sc2c1c(=O)n(-c1ccccc1C(F)(F)F)c(=O)n2Cc1cccc(F)c1,,inconclusive: 5.07%
COc1c(Cl)ccc(Cl)c1C(=O)NC(=S)N1CCOCC1,,inactive: -1.15%
Cc1c(CN2CCC(CO)(Cc3cccc(C(F)(F)F)c3)CC2)c2ccccc2n1C,"inconclusive: 29.1 µM [cytotoxic, single point]",
CCCNc1nc2c(c(=O)n(C)c(=O)n2C)n1CCCc1ccccc1,"inconclusive: 14.6 µM [cytotoxic, partial curve]",
Cc1nc2ccc(N)cc2c(=O)n1Cc1ccc(Cl)cc1,"inconclusive: 16.4 µM [rising, partial curve, poor fit]",
O=C(c1ccc(Br)o1)N1CCC(Cc2ccccc2)CC1,,inconclusive: -9.4%
Fc1ccc(CNC(=S)Nc2cccc(C(F)(F)F)c2)cc1,"inconclusive: 23.1 µM [cytotoxic, single point]",
CN(C)S(=O)(=O)c1ccc(C(=O)NCc2ccccn2)cc1,,inactive: 10.8%
CCc1nc(NCc2ccccn2)c2oc3ccccc3c2n1,"inconclusive: 13 µM [cytotoxic, single point]",
CCCCC1=CC2=C(c3ccco3)C(=O)C(C)(OC(=O)c3ccc(OC)cc3)C(=O)C2=CN1C1CC1 (stereo not drawn),"inconclusive: 23.1 µM [cytotoxic, single point]",
Cc1ccc(S(=O)(=O)N2CCN(CC(=O)Nc3ccc(N4CCOCC4)cc3)CC2)cc1C,,inactive: 9.91%
COc1cccc(C2C3=C(N=c4s/c(=C\c5cccc(O)c5)c(=O)n42)c2ccccc2CC3)c1OC (stereo not drawn),"inconclusive: 29.1 µM [cytotoxic, single point]",
Cc1nnc(Sc2nc3ccccc3o2)c2ccccc12,"inconclusive: 16.4 µM [cytotoxic, single point]",
COc1cccc(Nc2c3c(nc4c(-c5ccccc5)c(C)nn24)CCC3)c1,"inconclusive: 20.6 µM [cytotoxic, partial curve, poor fit]",
Cc1nc2ncnn2c(C)c1CCC(=O)NCc1cccc(Cl)c1,,inactive: -0.533%
Cc1nn(-c2ccccc2)c2sc(C(=O)Nc3cccc(Br)c3)cc12,"inconclusive: 20.6 µM [cytotoxic, single point]",

Structure (SMILES),Potency,"activity change, negative = cytotoxic"
CCCCNc1c(-c2ccc(SC(C)CC)c(OC)c2)nc2ccc(C)cn12 (stereo not drawn),"inconclusive: 29.1 µM [cytotoxic, single point]",
COc1ccccc1CNC(=O)CN1C(=O)NC(Cc2ccccc2)(c2ccccc2)C1=O (stereo not drawn),,inactive: -1.21%
Cc1[nH]n(-c2ccc([N+](=O)[O-])cc2)c(=O)c1C=NCCN1CCN(C(=O)c2ccccc2F)CC1,"inconclusive: 23.1 µM [cytotoxic, partial curve]",
Cc1ccc(S(=O)(=O)Nc2ccc(N3CCCCC3)cc2)cc1,,inactive: -7.83%
N#Cc1cccnc1N1CCN(C(=O)c2cccc3c2C(=O)c2ccc(-c4ccc(Cl)c(C(F)(F)F)c4)cc2S3(=O)=O)CC1,,inactive: 6.03%
Cc1nc2nc(SCC(=O)NCCCN3CCCC(C)C3)nn2c(C)c1Cc1ccccc1Cl (stereo not drawn),,inactive: -19.8%
COc1ccc(OC)c(Nc2cc3ccccc3c(=O)[nH]2)c1,active: 4.11 µM,
CCOC(=O)N1CCN(C(=O)Cn2ncc3c4ccccc4n(Cc4ccc(F)cc4)c3c2=O)CC1,"inconclusive: 25.9 µM [cytotoxic, partial curve, poor fit]",
COc1ccccc1-c1nnc(C2CCN(S(=O)(=O)c3ccc(F)c(C)c3)CC2)o1,,inactive: 1.29%
CCc1ccc(NC(=O)c2cc(S(=O)(=O)N3CCCC3)c[nH]2)cc1,"inconclusive: 29.1 µM [cytotoxic, single point]",
Cc1ccc(NC(=O)c2ccc(C(=O)c3ccccc3)cc2)nc1,active: 14.6 µM,
COC(=O)c1c(-c2ccccc2OC)sc2ccccc12,"inconclusive: 23.1 µM [cytotoxic, single point]",
Cc1ccc(C(=O)Nc2ccc(C(=O)N3CCCCC3)cc2)o1,"inconclusive: 32.6 µM [cytotoxic, single point]",
CCOC(=O)NC(=O)/C(C#N)=N\Nc1cccc(Cl)c1,"inconclusive: 29.1 µM [cytotoxic, single point]",
Cc1ccc(-c2nnc(SCC(=O)N/N=C/c3ccc(C)s3)n2-c2ccccc2)cc1,"inconclusive: 29.1 µM [cytotoxic, single point]",
Cc1ccc(SCC(=O)Nc2ccc(N3CCOCC3)cc2)c(C)c1,,inactive: 1.38%
Cc1ccc(NC(=O)COC(=O)/C=C/c2ccco2)cc1S(=O)(=O)N(C)C,,inactive: 3.35%
O=[N+]([O-])c1ccccc1S(=O)(=O)Nc1ccc(-c2ccc3nncn3n2)cc1,"inconclusive: 0.0411 µM [rising, full curve]",
COc1ccc(CC(=O)N/N=C/c2c(C)n(C)c3ccccc23)cc1OC,"inconclusive: 23.1 µM [cytotoxic, single point]",
Cc1cccc(COC[C@H](CC(C)C)N2CCN(C(=O)c3ccc(C(C)(C)C)cc3)CCC2=O)c1,"inconclusive: 25.9 µM [cytotoxic, single point]",
Cc1ccc2occ(/C=C/C(=O)c3ccccc3O)c(=O)c2c1,"inconclusive: 18.4 µM [cytotoxic, single point]",
CC(C)[C@H]1COCCS(=O)(=O)N1Cc1ccccc1-c1ccc(F)cc1,,inconclusive: -30.7% [cytotoxic]

# Entries of single compounds from above.
# Cc1cccc(COC[C@H](CC(C)C)N2CCN(C(=O)c3ccc(C(C)(C)C)cc3)CCC2=O)c1 in the list: Potency: inconclusive: 25.9 µM [cytotoxic, single point]
# CCCCNc1c(-c2ccc(SC(C)CC)c(OC)c2)nc2ccc(C)cn12 (stereo not drawn) in the list: Potency: inconclusive: 29.1 µM [cytotoxic, single point]
